Experimental findings from the supplement of paper PMC10849652 are described below.

Protein sequences, listed by entry. Tags and fused reporters are not part of them. Lines headed by an entry give the natural chain unless they say otherwise; changes in a name come on top.
UniProt Q9BQ65: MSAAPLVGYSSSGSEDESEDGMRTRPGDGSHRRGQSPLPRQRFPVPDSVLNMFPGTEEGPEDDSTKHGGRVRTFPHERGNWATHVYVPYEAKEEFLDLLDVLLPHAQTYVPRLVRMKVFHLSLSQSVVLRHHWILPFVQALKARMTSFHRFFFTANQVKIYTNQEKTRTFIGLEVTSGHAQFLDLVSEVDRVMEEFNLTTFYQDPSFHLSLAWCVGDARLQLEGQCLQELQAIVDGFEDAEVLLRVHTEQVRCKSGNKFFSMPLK
UniProt Q70EL1: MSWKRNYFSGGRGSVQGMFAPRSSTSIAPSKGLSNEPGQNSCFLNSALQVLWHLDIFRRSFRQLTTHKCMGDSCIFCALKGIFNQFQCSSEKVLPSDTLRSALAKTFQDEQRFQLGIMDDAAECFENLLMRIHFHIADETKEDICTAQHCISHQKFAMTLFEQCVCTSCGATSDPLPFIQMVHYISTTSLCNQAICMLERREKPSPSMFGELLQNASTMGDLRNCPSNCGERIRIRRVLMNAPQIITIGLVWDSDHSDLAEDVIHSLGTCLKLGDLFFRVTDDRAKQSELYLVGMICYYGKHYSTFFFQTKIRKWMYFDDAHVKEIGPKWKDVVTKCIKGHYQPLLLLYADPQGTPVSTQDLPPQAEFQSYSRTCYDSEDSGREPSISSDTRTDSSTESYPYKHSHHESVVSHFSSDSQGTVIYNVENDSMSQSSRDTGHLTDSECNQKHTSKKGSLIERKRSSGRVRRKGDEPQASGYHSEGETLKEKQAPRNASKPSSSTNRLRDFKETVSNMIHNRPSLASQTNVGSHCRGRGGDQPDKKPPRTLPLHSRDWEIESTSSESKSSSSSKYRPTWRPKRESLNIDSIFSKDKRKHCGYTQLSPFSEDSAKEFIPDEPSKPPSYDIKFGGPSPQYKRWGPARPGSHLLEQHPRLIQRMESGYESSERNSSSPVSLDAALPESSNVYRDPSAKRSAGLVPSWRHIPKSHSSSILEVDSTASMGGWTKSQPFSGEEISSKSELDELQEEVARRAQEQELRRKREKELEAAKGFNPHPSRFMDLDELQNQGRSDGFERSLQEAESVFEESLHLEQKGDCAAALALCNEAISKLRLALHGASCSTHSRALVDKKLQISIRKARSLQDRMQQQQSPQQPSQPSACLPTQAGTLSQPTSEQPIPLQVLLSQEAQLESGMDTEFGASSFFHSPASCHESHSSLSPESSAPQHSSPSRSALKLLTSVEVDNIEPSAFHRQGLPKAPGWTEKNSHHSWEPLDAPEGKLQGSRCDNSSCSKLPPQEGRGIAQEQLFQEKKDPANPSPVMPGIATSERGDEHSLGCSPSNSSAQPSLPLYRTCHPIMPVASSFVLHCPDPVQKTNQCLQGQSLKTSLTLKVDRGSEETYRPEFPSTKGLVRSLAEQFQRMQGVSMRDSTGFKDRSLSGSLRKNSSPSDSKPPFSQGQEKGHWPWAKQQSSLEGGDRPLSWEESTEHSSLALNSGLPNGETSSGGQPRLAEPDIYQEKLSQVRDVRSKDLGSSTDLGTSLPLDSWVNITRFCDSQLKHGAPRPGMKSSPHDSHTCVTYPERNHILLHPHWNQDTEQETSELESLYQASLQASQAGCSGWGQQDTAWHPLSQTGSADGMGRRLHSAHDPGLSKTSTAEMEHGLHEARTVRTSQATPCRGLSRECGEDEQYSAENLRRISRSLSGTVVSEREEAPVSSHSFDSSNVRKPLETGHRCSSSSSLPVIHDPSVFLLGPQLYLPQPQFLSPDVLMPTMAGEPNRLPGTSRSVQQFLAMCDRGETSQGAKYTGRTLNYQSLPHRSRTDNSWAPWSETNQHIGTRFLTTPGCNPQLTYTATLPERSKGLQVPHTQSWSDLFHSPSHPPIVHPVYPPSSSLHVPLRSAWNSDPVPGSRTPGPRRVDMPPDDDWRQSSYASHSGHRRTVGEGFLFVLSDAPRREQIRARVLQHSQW
UniProt O75317, whole entry, looked up: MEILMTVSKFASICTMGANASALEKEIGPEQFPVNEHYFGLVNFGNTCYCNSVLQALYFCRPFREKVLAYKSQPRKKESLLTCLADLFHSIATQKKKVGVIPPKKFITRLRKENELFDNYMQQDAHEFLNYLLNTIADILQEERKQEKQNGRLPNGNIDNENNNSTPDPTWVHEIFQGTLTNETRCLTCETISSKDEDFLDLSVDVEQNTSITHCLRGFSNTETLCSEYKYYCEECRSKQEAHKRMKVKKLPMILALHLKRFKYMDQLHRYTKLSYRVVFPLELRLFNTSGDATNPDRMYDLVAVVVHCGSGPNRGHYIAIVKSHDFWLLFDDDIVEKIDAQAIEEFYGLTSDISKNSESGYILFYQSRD
UniProt O00124: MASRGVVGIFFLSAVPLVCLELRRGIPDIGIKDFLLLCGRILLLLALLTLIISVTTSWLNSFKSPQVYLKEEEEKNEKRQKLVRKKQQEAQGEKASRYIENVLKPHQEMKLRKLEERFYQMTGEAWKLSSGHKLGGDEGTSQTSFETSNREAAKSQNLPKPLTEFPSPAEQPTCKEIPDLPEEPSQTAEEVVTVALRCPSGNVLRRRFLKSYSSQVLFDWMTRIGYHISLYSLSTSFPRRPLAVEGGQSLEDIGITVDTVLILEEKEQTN
UniProt Q6UW78: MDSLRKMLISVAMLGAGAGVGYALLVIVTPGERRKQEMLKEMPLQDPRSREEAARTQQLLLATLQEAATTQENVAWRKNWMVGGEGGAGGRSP
UniProt P51784: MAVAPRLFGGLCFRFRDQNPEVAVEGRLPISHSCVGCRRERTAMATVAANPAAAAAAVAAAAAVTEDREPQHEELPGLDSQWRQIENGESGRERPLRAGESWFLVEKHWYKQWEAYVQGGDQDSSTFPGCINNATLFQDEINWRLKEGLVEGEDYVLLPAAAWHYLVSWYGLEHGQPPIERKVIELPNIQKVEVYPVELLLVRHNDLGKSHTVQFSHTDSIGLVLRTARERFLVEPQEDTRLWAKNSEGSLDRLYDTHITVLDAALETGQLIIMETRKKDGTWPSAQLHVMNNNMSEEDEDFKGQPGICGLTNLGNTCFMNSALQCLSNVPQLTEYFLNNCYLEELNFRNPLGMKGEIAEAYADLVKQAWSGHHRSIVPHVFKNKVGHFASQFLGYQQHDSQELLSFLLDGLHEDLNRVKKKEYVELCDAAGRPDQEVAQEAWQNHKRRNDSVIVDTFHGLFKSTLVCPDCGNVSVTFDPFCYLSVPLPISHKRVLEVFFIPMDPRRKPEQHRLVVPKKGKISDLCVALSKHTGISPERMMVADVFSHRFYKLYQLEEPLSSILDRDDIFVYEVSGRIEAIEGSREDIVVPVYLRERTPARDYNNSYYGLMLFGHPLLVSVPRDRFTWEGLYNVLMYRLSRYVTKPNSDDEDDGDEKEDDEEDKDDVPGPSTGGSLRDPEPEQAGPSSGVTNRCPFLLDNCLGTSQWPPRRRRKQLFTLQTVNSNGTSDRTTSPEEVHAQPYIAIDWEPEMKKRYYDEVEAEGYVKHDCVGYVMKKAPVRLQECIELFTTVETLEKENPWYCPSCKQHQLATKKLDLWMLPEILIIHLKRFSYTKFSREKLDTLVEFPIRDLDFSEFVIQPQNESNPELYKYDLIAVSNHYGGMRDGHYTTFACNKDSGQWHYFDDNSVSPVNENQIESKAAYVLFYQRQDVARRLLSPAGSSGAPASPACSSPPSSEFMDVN
UniProt Q96JH7: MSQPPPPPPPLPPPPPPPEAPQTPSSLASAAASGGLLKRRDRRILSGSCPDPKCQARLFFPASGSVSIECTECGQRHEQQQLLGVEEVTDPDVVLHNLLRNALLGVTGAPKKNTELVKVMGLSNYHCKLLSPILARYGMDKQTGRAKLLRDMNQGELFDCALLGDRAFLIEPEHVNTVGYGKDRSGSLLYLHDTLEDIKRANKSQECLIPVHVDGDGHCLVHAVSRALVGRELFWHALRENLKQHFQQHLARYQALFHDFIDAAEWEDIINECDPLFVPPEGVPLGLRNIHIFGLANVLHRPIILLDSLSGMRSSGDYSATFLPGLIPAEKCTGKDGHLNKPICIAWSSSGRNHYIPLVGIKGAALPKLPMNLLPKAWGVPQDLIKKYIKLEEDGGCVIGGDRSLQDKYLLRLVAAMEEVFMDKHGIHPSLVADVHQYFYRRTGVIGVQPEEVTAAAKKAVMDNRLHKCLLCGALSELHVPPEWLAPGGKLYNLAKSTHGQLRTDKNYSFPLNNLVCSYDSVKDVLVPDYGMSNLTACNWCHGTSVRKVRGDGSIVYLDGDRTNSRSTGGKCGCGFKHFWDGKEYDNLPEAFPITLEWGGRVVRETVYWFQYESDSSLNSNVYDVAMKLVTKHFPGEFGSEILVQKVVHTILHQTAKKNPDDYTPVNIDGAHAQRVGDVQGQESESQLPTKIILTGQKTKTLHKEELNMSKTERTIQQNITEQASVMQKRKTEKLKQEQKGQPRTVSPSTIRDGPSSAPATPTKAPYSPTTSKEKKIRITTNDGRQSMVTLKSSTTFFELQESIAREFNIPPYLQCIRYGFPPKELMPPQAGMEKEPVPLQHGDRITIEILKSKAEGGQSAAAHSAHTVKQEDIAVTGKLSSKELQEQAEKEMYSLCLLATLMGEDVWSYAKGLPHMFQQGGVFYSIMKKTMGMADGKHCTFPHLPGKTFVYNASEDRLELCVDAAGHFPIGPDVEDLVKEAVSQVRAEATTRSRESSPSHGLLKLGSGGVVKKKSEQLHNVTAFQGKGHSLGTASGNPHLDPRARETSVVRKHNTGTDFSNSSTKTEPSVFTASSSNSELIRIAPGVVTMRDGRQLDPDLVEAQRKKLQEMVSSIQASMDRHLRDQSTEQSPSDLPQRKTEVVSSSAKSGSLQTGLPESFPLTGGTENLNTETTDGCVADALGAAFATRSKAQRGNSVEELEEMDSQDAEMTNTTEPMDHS
UniProt Q15836, whole entry, looked up: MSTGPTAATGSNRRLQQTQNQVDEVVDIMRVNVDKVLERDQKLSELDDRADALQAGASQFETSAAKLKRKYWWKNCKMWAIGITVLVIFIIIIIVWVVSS
UniProt Q9BZM5, whole entry, looked up: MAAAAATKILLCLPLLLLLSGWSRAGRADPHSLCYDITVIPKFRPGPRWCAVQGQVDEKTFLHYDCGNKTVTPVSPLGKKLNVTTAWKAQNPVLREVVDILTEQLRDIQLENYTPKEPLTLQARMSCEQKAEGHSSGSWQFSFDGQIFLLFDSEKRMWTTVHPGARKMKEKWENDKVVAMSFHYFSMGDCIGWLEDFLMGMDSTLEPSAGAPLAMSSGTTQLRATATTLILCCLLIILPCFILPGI
UniProt A6NNY8: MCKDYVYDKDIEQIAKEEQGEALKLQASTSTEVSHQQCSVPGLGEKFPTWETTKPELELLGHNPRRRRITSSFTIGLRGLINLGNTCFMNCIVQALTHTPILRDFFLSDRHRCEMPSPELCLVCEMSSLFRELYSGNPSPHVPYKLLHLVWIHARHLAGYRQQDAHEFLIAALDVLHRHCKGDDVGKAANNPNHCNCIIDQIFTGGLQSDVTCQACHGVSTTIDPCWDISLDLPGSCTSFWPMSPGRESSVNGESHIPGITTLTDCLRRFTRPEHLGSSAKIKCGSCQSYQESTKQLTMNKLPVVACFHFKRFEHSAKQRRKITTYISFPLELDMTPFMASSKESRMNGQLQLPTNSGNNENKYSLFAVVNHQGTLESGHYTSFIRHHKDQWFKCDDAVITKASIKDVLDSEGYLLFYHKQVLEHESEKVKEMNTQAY
UniProt Q8TEY7: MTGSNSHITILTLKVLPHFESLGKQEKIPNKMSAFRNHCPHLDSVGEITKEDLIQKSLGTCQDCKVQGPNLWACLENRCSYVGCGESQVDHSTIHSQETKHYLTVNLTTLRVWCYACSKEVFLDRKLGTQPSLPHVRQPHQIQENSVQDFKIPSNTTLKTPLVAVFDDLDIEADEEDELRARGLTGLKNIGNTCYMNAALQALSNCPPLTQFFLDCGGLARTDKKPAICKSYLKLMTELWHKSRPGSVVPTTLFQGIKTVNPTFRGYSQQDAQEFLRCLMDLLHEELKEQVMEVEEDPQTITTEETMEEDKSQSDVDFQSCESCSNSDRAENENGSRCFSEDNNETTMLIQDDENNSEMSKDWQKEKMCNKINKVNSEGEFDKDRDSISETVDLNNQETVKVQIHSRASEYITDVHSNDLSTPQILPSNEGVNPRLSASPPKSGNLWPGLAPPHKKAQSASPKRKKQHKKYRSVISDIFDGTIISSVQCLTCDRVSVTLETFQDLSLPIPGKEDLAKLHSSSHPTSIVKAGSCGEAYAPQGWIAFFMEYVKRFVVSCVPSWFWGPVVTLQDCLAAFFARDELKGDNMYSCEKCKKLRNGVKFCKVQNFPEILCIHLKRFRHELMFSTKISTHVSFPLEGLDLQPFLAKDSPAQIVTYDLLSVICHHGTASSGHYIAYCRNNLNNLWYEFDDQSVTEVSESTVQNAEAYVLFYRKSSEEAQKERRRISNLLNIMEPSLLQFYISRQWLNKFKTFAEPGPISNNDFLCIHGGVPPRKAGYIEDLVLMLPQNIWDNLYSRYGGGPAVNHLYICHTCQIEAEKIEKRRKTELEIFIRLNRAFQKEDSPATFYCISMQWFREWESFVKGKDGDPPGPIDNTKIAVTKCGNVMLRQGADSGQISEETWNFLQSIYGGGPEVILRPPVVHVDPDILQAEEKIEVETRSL

Some of the results follow.

Compound in the first assay: Cc1cc(Nc2cc(CN3CCOCC3)c3nc(C)c(Cc4ccc(Cl)cc4F)n3n2)n[nH]1 [gandotinib]
The assay can be described thus: log2 fold change, soluble protein after heating vs DMSO (PISA); higher = thermal stabilisation; K562 cells, 10 uM, 30 min; active = over 0.2 and 3.5 SD of the protein, either way, in both replicates (recomputed). In short, it runs like this: (§1)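 For each measurement, 10 μM compound was applied for 30 min to K562 cells at 2×10^6 cells/mL. Aliquots were heated for 3 min across 48°C-58°C, pooled, and extracted in PBS with 0.5% NP-40 at 4°C; the supernatant after 21,000xg for 90 min was soluble protein. This was quantified by TMTpro 16plex LC-MS/MS with channel sums equalised, and thermal stability was reported relative to control samples from duplicates, on a log2 fold-change scale.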
Consider VAV1 (UniProt P15498), for which the log2 fold change was inactive: -0.186.

UQCR11 (UniProt O14957): the log2 fold change was inactive: 0.215.

Regarding UTP18 (UniProt Q9Y5J1), the log2 fold change is inactive: 0.076.

Consider UCHL1 (UniProt P09936), for which the log2 fold change is inactive: -0.015.

For the target UNG (UniProt P13051), the log2 fold change is inactive: -0.181.

On to USB1 (UniProt Q9BQ65), for which the log2 fold change is inactive: -0.25.

As to UFM1 isoform 2 (UniProt P61960), the log2 fold change is inactive: -0.066.

With USP54 (UniProt Q70EL1), the log2 fold change is inactive: -0.069.

In the case of UMAD1 (UniProt C9J7I0), the log2 fold change was inactive: 0.084.

For USP12 (UniProt O75317), the log2 fold change is inactive: 0.003.

UBQLN3 (UniProt Q9H347): the log2 fold change was inactive: -0.145.

For UBXN8 (UniProt O00124), the log2 fold change was inactive: 0.026.

In the case of UQCC3 (UniProt Q6UW78), the log2 fold change was inactive: 0.209.

On to USP11 (UniProt P51784), for which the log2 fold change is inactive: 0.012.

USP16 (UniProt Q9Y5T5): the log2 fold change was inactive: 0.065.

In the case of VCPIP1 (UniProt Q96JH7), the log2 fold change was inactive: 0.151.

As for ULK3 isoform 4 (UniProt Q6PHR2), the log2 fold change was inactive: -0.604.

For UBR1 (UniProt Q8IWV7), the log2 fold change is inactive: 0.025.

Compound in another assay: Cc1cc(Nc2cc(N3CCN(C)CC3)nc(Sc3ccc(NC(=O)C4CC4)cc3)n2)n[nH]1 [tozasertib]
Described as above. In short, it runs like this:
as §1
On to VAMP3 (UniProt Q15836), for which the log2 fold change is inactive: -0.368.

VAV1 (UniProt P15498): the log2 fold change was inactive: -0.185.

Consider UNC5B (UniProt Q8IZJ1), for which the log2 fold change is inactive: 0.16.

Regarding ULBP2 (UniProt Q9BZM5), the log2 fold change was inactive: 0.168.

Regarding UPP1 (UniProt Q16831), the log2 fold change is inactive: -0.059.

As for UNG (UniProt P13051), the log2 fold change is inactive: -0.124.

As for USB1 (UniProt Q9BQ65), the log2 fold change was inactive: -0.018.

As for USP54 (UniProt Q70EL1), the log2 fold change was inactive: -0.142.

Turning to UMAD1 (UniProt C9J7I0), the log2 fold change was inactive: 0.082.

For USP12 (UniProt O75317), the log2 fold change was inactive: -0.098.

As for UBQLN3 (UniProt Q9H347), the log2 fold change is inactive: -0.004.

In the case of UHRF1 isoform 2 (UniProt Q96T88), the log2 fold change is inactive: -0.022.

USP16 (UniProt Q9Y5T5): the log2 fold change is inactive: -0.331.

In the case of USP27X (UniProt A6NNY8), the log2 fold change is inactive: 0.072.

As to USP33 (UniProt Q8TEY7), the log2 fold change is inactive: 0.035.

Regarding UNC13A (UniProt Q9UPW8), the log2 fold change was inactive: -0.017.
